These are yes or no findings as the source states them, for the method shown. In cells and extracts the contact can be indirect. Some binding calls cover weakened binding; strength is not graded here.

Sequences of proteins named here, by UniProt entry; tags and fusion partners are left off. A change or cut given only in a name is not applied to a line headed by its entry. A line that says so, or that is headed by a name, gives the form on record, which may keep a tag or linker.
UniProt Q96PU5: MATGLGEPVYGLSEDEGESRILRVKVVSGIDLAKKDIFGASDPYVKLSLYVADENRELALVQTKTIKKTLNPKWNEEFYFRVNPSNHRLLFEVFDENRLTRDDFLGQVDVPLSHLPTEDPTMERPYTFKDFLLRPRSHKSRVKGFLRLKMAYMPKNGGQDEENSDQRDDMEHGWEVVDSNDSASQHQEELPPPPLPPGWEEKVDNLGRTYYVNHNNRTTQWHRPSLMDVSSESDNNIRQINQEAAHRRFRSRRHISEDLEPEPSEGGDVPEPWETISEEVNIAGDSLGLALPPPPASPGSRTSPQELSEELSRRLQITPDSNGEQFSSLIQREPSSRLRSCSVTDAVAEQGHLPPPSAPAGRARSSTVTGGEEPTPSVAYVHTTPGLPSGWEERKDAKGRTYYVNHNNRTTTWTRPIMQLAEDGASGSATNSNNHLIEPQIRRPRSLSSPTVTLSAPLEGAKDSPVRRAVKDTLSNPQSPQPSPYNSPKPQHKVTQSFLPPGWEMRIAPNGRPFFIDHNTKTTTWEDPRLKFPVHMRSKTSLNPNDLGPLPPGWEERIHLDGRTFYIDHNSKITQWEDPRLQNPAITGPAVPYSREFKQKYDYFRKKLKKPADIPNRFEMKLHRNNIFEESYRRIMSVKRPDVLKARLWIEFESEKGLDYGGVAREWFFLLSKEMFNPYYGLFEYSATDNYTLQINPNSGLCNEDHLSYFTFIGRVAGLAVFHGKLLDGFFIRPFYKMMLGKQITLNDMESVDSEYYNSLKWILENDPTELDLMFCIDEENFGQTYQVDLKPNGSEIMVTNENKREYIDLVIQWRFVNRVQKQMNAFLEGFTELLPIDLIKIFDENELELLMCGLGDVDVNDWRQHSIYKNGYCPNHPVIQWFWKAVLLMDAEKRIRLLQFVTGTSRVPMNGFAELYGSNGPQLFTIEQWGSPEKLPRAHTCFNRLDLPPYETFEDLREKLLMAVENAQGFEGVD
UniProt Q6XZF7: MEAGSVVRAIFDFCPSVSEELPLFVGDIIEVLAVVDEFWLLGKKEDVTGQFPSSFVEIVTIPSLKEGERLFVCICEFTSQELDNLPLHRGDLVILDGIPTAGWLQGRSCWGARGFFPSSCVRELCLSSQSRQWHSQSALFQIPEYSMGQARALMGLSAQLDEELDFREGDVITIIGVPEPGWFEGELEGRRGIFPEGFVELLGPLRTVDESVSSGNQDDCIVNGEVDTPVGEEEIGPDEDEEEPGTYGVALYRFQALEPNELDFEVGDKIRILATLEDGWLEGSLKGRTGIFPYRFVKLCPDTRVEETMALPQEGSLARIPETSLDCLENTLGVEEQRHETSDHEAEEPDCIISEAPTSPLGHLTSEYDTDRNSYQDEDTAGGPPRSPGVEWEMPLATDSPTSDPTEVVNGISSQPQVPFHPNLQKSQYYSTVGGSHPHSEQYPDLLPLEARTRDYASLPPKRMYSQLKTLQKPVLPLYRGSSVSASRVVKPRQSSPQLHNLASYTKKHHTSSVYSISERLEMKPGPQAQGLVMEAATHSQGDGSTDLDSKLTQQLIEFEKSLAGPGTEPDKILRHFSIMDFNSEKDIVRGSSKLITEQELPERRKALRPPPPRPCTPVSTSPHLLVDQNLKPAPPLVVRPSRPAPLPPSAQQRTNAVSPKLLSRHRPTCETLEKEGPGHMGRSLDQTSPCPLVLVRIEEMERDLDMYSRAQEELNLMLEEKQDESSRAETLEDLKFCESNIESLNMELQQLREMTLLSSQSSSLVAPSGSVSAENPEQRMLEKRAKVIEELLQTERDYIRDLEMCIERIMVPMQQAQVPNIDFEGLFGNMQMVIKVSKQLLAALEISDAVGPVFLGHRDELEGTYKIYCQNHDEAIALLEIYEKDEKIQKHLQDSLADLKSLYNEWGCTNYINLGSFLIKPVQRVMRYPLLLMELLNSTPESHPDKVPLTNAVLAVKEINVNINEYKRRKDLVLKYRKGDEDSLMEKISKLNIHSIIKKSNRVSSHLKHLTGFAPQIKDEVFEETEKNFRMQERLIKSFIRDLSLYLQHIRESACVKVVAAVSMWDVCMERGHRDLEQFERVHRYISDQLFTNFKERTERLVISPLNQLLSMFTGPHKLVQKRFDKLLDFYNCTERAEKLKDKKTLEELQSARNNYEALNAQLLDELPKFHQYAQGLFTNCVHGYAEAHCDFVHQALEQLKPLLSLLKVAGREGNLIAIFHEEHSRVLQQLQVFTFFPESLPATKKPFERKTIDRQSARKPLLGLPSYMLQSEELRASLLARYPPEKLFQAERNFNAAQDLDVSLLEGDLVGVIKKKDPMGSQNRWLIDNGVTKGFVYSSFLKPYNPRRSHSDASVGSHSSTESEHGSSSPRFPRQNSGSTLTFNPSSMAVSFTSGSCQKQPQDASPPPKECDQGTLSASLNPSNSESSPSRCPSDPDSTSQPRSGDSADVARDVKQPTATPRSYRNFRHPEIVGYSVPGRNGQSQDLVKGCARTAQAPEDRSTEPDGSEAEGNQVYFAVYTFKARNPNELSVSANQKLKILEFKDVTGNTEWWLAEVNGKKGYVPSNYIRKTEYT
HA-DNMBP 3ΔPY (triple PY motif mutant) (Q6XZF7, form named): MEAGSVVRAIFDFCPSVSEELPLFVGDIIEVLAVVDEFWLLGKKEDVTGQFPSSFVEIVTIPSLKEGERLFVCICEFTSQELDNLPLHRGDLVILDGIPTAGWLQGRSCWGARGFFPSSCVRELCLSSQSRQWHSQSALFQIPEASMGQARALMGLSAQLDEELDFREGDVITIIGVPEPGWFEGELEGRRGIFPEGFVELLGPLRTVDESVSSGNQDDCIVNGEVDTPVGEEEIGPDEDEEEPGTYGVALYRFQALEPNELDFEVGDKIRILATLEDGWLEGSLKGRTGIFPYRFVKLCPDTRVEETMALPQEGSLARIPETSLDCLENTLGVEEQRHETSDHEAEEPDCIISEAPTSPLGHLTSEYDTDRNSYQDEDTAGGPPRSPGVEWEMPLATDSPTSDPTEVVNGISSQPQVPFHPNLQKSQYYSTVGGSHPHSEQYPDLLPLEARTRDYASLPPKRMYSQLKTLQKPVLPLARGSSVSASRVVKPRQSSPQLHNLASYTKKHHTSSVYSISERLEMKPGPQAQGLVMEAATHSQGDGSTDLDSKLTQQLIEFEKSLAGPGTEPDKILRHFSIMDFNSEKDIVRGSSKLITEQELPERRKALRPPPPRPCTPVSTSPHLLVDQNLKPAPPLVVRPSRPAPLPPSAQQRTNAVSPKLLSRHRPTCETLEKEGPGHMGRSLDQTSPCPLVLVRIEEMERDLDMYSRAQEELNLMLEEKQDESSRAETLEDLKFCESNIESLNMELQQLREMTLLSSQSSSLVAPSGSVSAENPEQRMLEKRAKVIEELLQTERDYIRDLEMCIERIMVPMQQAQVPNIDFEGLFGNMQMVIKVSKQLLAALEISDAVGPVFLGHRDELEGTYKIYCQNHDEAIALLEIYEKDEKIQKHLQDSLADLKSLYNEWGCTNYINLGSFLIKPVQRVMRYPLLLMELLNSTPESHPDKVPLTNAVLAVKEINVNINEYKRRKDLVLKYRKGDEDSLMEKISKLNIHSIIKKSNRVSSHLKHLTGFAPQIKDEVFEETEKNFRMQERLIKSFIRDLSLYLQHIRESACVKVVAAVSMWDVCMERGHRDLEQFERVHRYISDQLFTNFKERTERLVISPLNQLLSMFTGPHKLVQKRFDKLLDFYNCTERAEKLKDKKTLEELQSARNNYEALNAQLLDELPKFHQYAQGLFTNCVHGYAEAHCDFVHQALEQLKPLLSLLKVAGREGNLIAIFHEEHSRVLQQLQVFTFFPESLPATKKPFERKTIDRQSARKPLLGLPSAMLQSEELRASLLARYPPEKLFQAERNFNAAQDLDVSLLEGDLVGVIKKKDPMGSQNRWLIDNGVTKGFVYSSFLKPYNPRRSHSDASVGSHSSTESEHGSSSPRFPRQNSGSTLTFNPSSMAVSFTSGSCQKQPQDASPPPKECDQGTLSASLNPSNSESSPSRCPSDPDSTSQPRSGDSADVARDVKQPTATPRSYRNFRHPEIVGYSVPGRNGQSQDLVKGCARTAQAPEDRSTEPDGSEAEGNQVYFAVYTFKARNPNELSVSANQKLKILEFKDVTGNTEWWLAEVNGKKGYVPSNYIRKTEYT

This assay concerns the target V5-tagged Nedd4-2 (WT) (UniProt Q96PU5). The assay can be described thus: co-IP; HEK293T or HeLa cells transfected 2 days, iso- or hyper-osmotic medium (600 mOSM) for 15 min; 1 mg cleared lysate (1% Triton X-100, 150 mM NaCl, Hepes pH 7.5); Nedd4-2 immunoprecipitated with anti-V5 affinity beads, DNMBP detected by immunoblot for HA or DNMBP.
Consider “HA-DNMBP 3ΔPY (triple PY motif mutant) (from UniProt Q6XZF7 1-1577)”, for which the binding entry was “binds weakly”.
As for “HA-DNMBP Y145A (from UniProt Q6XZF7 1-1577)”, the binding entry is listed as “binds”.
For “HA-DNMBP Y479A (from UniProt Q6XZF7 1-1577)” the value was “binds”.
Turning to “HA-DNMBP Y1269A (from UniProt Q6XZF7 1-1577)”, the binding entry is reported as “binds”.
Turning to “HA-tagged Dynamin Binding Protein (DNMBP) (from UniProt Q6XZF7 1-1577)”, the binding result is recorded as “binds”.
Take “endogenous Dynamin Binding Protein (DNMBP) (from UniProt Q6XZF7 1-1577)”: the binding entry is on record as “binds”.

The values above are taken from paper PMC12569825.
